This is an account of results in article PMC7588095.

For assay [1], the target named is T1, FLAG-tagged KDM2B-LF (full-length KDM2B lysine demethylase) (UniProt Q8NHM5).
T1 sequence: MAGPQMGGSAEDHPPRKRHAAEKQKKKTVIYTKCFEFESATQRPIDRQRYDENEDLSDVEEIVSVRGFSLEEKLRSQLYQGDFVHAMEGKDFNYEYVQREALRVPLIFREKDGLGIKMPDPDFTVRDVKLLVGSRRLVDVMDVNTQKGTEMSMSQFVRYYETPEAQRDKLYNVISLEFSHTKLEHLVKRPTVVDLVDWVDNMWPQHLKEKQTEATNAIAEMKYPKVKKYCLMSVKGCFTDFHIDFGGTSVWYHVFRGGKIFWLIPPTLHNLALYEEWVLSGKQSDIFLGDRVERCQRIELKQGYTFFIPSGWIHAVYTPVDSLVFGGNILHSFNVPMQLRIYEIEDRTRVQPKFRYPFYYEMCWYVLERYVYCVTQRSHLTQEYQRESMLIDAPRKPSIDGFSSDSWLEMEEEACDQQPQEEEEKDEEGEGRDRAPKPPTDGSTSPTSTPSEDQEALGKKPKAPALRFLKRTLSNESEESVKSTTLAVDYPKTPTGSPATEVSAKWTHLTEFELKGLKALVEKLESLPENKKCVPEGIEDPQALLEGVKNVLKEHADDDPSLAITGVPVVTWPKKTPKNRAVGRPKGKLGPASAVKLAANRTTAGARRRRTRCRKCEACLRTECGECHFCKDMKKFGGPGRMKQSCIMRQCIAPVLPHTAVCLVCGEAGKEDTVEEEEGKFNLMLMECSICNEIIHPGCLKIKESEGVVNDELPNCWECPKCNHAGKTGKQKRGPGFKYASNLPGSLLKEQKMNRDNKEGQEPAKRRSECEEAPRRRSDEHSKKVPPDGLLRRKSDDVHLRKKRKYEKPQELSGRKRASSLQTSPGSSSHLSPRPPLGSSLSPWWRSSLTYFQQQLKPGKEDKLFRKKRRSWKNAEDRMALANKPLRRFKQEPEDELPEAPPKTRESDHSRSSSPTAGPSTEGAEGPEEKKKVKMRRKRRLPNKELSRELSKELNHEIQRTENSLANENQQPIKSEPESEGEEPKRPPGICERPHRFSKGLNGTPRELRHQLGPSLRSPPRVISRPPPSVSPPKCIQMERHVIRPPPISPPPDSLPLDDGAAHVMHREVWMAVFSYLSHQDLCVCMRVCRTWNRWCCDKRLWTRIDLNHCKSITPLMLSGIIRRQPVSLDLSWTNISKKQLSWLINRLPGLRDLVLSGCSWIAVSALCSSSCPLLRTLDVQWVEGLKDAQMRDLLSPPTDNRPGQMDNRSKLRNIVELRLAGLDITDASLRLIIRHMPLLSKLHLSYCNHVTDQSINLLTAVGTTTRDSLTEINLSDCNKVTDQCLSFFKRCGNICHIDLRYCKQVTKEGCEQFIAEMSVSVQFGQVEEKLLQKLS
Nature of the assay: co-IP; myc-TCF7L1 and FLAG-KDM2A/B isoforms co-expressed in HEK293T; whole cell extract (300 mM NaCl, 0.5% NP-40) diluted to 150 mM NaCl and 0.1% NP-40; 500 ug extract rotated overnight at 4 C with 2.5 ug anti-FLAG antibody, Dynabeads Protein G; western blot with anti-myc. (In general: Immunoblotting shows a protein as a band on a membrane.)

Assay [2] deals with T2, FLAG-tagged KDM2A-LF (full-length KDM2A lysine demethylase) (UniProt Q9Y2K7).
T2 sequence: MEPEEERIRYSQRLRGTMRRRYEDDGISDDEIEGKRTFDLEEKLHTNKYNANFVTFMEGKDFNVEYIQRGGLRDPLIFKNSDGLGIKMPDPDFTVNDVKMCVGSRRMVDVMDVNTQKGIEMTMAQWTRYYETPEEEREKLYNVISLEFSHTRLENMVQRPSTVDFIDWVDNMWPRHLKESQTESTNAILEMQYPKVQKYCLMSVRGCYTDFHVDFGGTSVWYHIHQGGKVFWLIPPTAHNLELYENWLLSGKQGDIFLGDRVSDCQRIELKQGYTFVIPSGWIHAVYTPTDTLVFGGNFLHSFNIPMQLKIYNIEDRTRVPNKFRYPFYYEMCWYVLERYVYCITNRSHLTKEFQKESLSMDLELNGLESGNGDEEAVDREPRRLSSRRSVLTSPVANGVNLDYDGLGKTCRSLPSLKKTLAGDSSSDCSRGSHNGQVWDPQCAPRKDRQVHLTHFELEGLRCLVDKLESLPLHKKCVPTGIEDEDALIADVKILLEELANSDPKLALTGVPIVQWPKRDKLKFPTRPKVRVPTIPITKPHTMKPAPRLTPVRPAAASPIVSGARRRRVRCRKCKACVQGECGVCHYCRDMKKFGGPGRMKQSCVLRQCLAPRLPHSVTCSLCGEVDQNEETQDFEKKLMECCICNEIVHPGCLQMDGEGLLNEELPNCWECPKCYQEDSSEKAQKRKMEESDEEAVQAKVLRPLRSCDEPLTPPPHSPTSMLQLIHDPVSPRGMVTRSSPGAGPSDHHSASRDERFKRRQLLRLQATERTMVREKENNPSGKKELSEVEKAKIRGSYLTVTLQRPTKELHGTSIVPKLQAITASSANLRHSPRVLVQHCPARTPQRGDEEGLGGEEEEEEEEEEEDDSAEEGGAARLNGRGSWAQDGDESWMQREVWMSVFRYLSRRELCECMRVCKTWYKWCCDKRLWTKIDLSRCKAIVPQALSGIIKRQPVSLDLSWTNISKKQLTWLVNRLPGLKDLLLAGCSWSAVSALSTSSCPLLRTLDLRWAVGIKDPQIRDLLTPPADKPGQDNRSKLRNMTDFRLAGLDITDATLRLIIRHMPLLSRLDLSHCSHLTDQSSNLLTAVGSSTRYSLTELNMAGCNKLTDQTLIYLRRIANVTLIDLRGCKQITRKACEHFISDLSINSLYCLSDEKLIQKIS
The assay is described as above.

No constants are given. Whether binding was seen depends on the method and setting. In cells and extracts the contact can be indirect. Some results given as binding are weak or reduced against the parent protein; the word gives no strength. Tags and fused reporters may be left off the sequences shown.

B1: myc-tagged TCF7L1 (protein, UniProt Q9HCS4 1-588)
chain: MPQLGGGGGGGGGGSGGGGGSSAGAAGGGDDLGANDELIPFQDEGGEEQEPSSDSASAQRDLDEVKSSLVNESENQSSSSDSEAERRPQPVRDTFQKPRDYFAEVRRPQDSAFFKGPPYPGYPFLMIPDLSSPYLSNGPLSPGGARTYLQMKWPLLDVPSSATVKDTRSPSPAHLSNKVPVVQHPHHMHPLTPLITYSNDHFSPGSPPTHLSPEIDPKTGIPRPPHPSELSPYYPLSPGAVGQIPHPLGWLVPQQGQPMYSLPPGGFRHPYPALAMNASMSSLVSSRFSPHMVAPAHPGLPTSGIPHPAIVSPIVKQEPAPPSLSPAVSVKSPVTVKKEEEKKPHVKKPLNAFMLYMKEMRAKVVAECTLKESAAINQILGRKWHNLSREEQAKYYELARKERQLHSQLYPTWSARDNYGKKKKRKREKQLSQTQSQQQVQEAEGALASKSKKPCVQYLPPEKPCDSPASSHGSMLDSPATPSAALASPAAPAATHSEQAQPLSLTTKPETRAQLALHSAAFLSAKAAASSSGQMGSQPPLLSRPLPLGSMPTALLASPPSFPATLHAHQALPVLQAQPLSLVTKSAH
Take B1: the binding entry in assay [1] and in assay [2] was “binds” throughout.
